Taken from: PubChem BioAssay AID686943 (Drosophila RNAi Screening Center, 2013)

- Purpose: 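Knockdowns that increase or decrease active ERK after insulin receptor stimulation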 (primary screen)
- System: Drosophila S2R+ haemocyte-like cells expressing YFP-tagged ERK (Rolled)
- Reagent: long dsRNA against Drosophila genes
- Challenge: insulin stimulation versus unstimulated cells; dose and duration not given
- Measurement: 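Antibody staining for doubly phosphorylated ERK divided by ERK-YFP signal, as plate z-scores, in insulin-treated and untreated cells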
- Direction: replicate 1, z-score of dpERK with insulin and replicate 2, z-score of dpERK with insulin: higher = more active ERK per ERK-YFP after insulin; replicate 1, z-score of dpERK under basal conditions: higher = more basal active ERK per ERK-YFP; replicate 1, z-score of ERK-YFP with insulin: higher = more YFP-tagged ERK signal
The screen tested about 23,000 reagents; below is a random part of those with a known target gene and a result. 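Extra replicates exist only for a retested subset of genes; insulin dose and duration not given; both raised and lowered dpERK matter.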 Names joined by + are all predicted targets of the reagent. Not stated in the record: the amount of reagent, the time to read-out.

no.	Target gene	dsRNA	replicate 1, z-score of dpERK with insulin	replicate 2, z-score of dpERK with insulin	replicate 1, z-score of dpERK under basal conditions	replicate 1, z-score of ERK-YFP with insulin
1	CG4004	DRSC19791	-0.1	-1.29	-1.06	0.43
2	CG4004	DRSC19882	-0.54	0.32	-0.09	0.81
3	cl	DRSC02118	0.63	0.32	-0.48	1.07
4	CG3829	DRSC04423	0.49	-0.03	1.34	-0.46
5	vih	DRSC09778	-2.38	-1.92	1.05	-2.92
6	stx	DRSC18442	-2.84	-2.11	-2.98	-2.51
7	stx	DRSC18443	-1.65	0.26	-1.7	1.9
8	CG32087	DRSC10806	-0.08	0.38	-0.16	0.94
9	twe	DRSC03628	-0.14	0.29	0.24	0.84
10	how	DRSC16966	-2.27	-3.35	-1.97	1.54
11	CG13312	DRSC09983	-0.58	0.29	1.06	0.86
12	pelo	DRSC03588	-0.11	-0.13	-0.46	0.39
13	Gpo2	DRSC06822	-0.41	-0.47	-1.16	0.91

Sorted by “replicate 1, z-score of ERK-YFP with insulin” (ascending): some entries from above
Target gene	dsRNA	replicate 1, z-score of dpERK with insulin	replicate 2, z-score of dpERK with insulin	replicate 1, z-score of dpERK under basal conditions	replicate 1, z-score of ERK-YFP with insulin
CG3829	DRSC04423	0.49	-0.03	1.34	-0.46
cl	DRSC02118	0.63	0.32	-0.48	1.07

The list goes on.
no.	Target gene	dsRNA	replicate 1, z-score of dpERK with insulin	replicate 2, z-score of dpERK with insulin	replicate 1, z-score of dpERK under basal conditions	replicate 1, z-score of ERK-YFP with insulin
14	CG7573	DRSC10884	0.02	0.53	1.32	0.46
15	bif	DRSC18901	0.39	0.87	0.72	-0.22
16	bif	DRSC20313	-0.13	0.04	-0.89	-0.63
17	Nrk	DRSC07480	0.31	0.5	0.78	-0.17
18	CG6028	DRSC15951	0.19	0.05	1.39	0.13
19	CG42390	DRSC15866	-0.65	-2.44	-0.75	2.31
20	TwdlQ	DRSC14745	-0.72	-2.77	-0.56	2.38
21	CG8289	DRSC20101	0.04	0.18	0.95	0.42
22	CG13186	DRSC06311	0.1	-0.35	1.15	0.13
23	BomS6	DRSC21676	-0.49	-0.87	0.72	1.67
24	brk	DRSC18745	-1.55	-2.39	-1.12	2.71
25	Cln3	DRSC10520	-0.36	0.4	-0.89	0.63
26	Sox21b	DRSC10025	-1.75	-0.74	-0.37	-1.15
27	Sox21b	DRSC10634	-2.73	-2.67	-2.48	1.01
28	Sox21b	DRSC22788	-1.49	-1.73	-1.61	-0.05
29	CG9593	DRSC16508	1.15	-1.54	-0.15	0.1
30	CG42354 + CG42353	DRSC20172	-1.52	-1.3	-0.63	-0.61
31	CG44325	DRSC18039	0.52	0.04	1.63	-0.61
32	CG44325	DRSC18423	-0.25	0.02	-0.42	-0.12
33	His4r	DRSC16703	-1.83	-2.96	-3.96	-6.5
34	CR10032	DRSC12499	0.49	0.56	-1.12	-0.46
35	Rala	DRSC18703	-0.77	-0.76	-0.36	1.14
36	Gr59b	DRSC04179	0.13	-0.18	0.78	0.28
37	CG15247	DRSC17976	0.52	1.08	-0.38	0.13
38	NLaz	DRSC21521	0.22	0.17	-0.13	0.3
39	CG12929	DRSC06242	-1.2	0.49	-0.74	1.53
